Article PMC10917647

Target: T1, Psc3-PK (S. pombe) (UniProt O13816)
T1 sequence: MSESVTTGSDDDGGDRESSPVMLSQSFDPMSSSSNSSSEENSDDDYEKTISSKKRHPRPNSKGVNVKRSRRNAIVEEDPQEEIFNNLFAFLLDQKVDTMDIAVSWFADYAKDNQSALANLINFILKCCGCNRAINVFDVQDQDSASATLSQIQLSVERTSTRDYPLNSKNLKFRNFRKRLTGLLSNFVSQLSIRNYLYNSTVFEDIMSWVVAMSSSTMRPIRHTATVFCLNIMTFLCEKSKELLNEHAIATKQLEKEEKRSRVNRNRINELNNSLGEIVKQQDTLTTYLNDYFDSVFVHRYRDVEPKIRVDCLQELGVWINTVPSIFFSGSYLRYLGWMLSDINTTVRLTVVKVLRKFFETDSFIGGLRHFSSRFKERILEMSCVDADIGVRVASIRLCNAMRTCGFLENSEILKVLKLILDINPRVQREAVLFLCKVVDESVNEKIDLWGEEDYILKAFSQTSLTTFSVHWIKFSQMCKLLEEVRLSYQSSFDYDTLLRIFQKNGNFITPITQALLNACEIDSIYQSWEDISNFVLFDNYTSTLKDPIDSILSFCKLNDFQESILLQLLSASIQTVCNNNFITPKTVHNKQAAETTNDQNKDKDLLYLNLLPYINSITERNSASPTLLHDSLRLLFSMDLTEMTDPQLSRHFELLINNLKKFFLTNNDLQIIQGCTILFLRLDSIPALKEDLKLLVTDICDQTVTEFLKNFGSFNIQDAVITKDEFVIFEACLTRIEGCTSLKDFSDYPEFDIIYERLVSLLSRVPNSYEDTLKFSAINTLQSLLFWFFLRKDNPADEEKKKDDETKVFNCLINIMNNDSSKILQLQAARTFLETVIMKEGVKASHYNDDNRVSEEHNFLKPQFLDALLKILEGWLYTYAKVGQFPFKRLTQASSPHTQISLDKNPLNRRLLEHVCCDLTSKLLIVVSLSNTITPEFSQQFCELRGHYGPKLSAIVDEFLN
Assay: affinity purification with mass spectrometry; cell extracts of WT and moa1Δ meiotic prophase I cells expressing Psc3-PK; immunopurified by anti-Pk antibodies, analysed by mass spectrometry

B1: Rec8 (protein, UniProt P36626 1-561)
chain: MFYNQDVLTKEKGGMGVIWLAATLGSKHSLRKLHKKDIMSVDIDEACDFVAFSPEPLALRLSSNLMIGVTRVWAHQYSFFHSQVSTLHLRVRKELDHFTSKPFKNIDIQNEQTNPKQLLLAEDPAFIPEVSLYDAFNLPSVDLHVDMSSFTQPKENPNISVLETLPDSTSYLINTSQNYSLRNNVSSFVYEDSRAFSTEEPLDFEFDENGDIQELTKGTINSDPSLQAASQHSNLGSVQREYNSEEQESRIHMFEIDEDVLPLPVPLQSVMDSEHNENEPRALKRRKVQKLLEPDENIELSTRTLSQWRKNYVERMIALEATKYVRRRGASSAKKKELNKFFDWESFHPLLKPWIEKLKPSNNTPSEIDDVLRNIDTSEVEVGRDVQGELGLNIPWNTSSRSNSAINSKSHSQTGSEHSTPLLDTKYRKRLPHSPSMPSRVEFLPALESSQFHETLNSELSLQLSDDFVLYKNTQEENAHLMLSMEKECANFYEYAKTAIYENNGRITFSSLLPNDLKRPVVAQAFSHLLSLATKSAFLVKQDKPYSEISVSLNLKSTDAI
- binding: binds

Results are given in words; binding and its absence hold for the method and conditions named. Binding seen in cells or lysates may run through a third protein. Here binding means that the protein was enriched with, or labelled near, the bait; the list need not be complete.
